From PubChem BioAssay AID328 (DTP/NCI, 2004)
The list does not hold the whole screen: it gathers tests that were run many times, whatever their T/C, doses with no T/C, and many T/C values between a quarter and a half above the control. Other doses and runs of a compound stand elsewhere. T/C: endpoint of the treated group in % of that of the vehicle group. Some entries give survivors of the animals treated and no T/C: the source holds a T/C of zero for them, seemingly a mark for toxic or unscored doses. Some survivor counts are full or nearly so, which does not show that the dose was tolerated: the source hardly ever lists a survival T/C far under the control, and the zero likely stands for such cases as well. Counts of survivors are from the toxicity check (mostly the fifth day) where no day follows; animals may have died later. Schedules are NCI's codes, read here as Q, the interval in days (D) or hours (H), X, the number of doses. Where survival is the endpoint, the PubChem record calls one and a half times the control and up active, and a quarter to a half above the control has no call in these data; cut-offs in other NCI protocols can differ. Marks such as (2×) stand for listed records that agree. Some T/C values carry the count of animals alive at the toxicity check (mostly the fifth day); where none is given, no animal had died by that day. Some doses were run more than once; the results are listed from low to high.

System: BDF1 mice, P388 leukemia ip, median survival T/C
Test: NCI In Vivo Anticancer Drug Screen. Data for tumor model P388 Leukemia (intraperitoneal) in B6D2F1 (BDF1) mice
Details: T/C endpoint: median survival time, higher T/C = longer survival
Outline: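 In tumour-bearing mice, survival after compound treatment is set against the vehicle group and given as a quotient.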

[1] = dose: 200.0 mg/kg/injection, schedule: Q01DX009 (ip), vehicle: saline with Tween-80
[2] = dose: 100.0 mg/kg/injection, schedule: Q01DX009 (ip), vehicle: saline with Tween-80
[3] = dose: 400.0 mg/kg/injection, schedule: Q01DX009 (ip), vehicle: saline with Tween-80
[4] = dose: 400.0 mg/kg/injection, schedule: Q04DX003 (ip), vehicle: Klucel (hydroxypropylcellulose) (HPC)
[5] = dose: 100.0 mg/kg/injection, schedule: Q01DX009 (ip), vehicle: Klucel (hydroxypropylcellulose) (HPC)
[6] = dose: 100.0 mg/kg/injection, schedule: Q04DX003 (ip), vehicle: saline with Tween-80
[7] = dose: 50.0 mg/kg/injection, schedule: Q04DX003 (ip), vehicle: saline

SMILES: NC(=O)c1ccc[n+](Cc2c(Cl)cccc2Cl)c1
- T/C (dose: 1.9 mg/kg/injection, schedule: Q04DX003 (ip), vehicle: saline): 140 % of control
- T/C (dose: 2.9 mg/kg/injection, schedule: Q04DX003 (ip), vehicle: saline): 127 % of control
- survivor count (dose: 4.12 mg/kg/injection, schedule: Q01DX009 (ip), vehicle: saline): 6 of 6
- T/C (dose: 4.4 mg/kg/injection, schedule: Q04DX003 (ip), vehicle: saline): 145 % of control
- T/C (dose: 6.75 mg/kg/injection, schedule: Q04DX003 (ip), vehicle: saline): 145 % of control
- T/C (dose: 8.9 mg/kg/injection, schedule: Q04DX003 (ip), vehicle: saline): 129 % of control
- T/C (dose: 13.5 mg/kg/injection, schedule: Q04DX003 (ip), vehicle: saline): 133 % of control
- survivor count (dose: 27.0 mg/kg/injection, schedule: Q04DX003 (ip), vehicle: saline): 6 of 6

SMILES: Cc1cc(O)c(C(c2ccccc2)c2c(O)cc(C)[nH]c2=O)c(=O)[nH]1
- survivor count [1]: 6 of 6

SMILES: COc1ccc(/C=C/C(=O)c2ccc3c(c2)OCO3)cc1O
- T/C (dose: 12.5 mg/kg/injection, schedule: Q01DX009 (ip), vehicle: saline): 136 % of control

SMILES: O/C(=C/C(=S)S)c1ccco1
- survivor count (dose: 100.0 mg/kg/injection, schedule: Q04DX003 (ip), vehicle: water): 6 of 6

SMILES: CCNNC(=O)[C@@H]1[C@H](c2cc(OC)c(OC)c(OC)c2)c2cc3c(cc2[C@H](O)[C@H]1CO)OCO3
- survivor count [2]: 4 of 6
- survivor count [1]: 2 of 6
- survivor count [3]: 2 of 6
- survivor count (dose: 400.0 mg/kg/injection, schedule: Q04DX003 (ip), vehicle: saline with Tween-80): 4 of 6

SMILES: C[N+](C)(C)Cc1ccccc1C[N+](C)(C)C
- survivor count (dose: 200.0 mg/kg/injection, schedule: Q01DX009 (ip), vehicle: saline): 3 of 6

SMILES: CC(CCC/C=C/CCCN(C)C(=N)N)CC(C)C1OC(=O)C(C)C(O)/C=C/C(C)C(O)C(C)C(O)C(C)C(O)CCCC(O)CC2(O)OC(CC(OC(=O)CC(=O)O)CC(O)CC(O)C(C)C(O)/C=C/C=C/C1C)CC(O)C2O (stereo unspecified)
- survivor count (dose: 10.0 mg/kg/injection, schedule: Q01DX009 (ip), vehicle: saline): 2 of 6
- survivor count (dose: 16.0 mg/kg/injection, schedule: Q01DX009 (ip), vehicle: saline): 1 of 6
- survivor count (dose: 16.0 mg/kg/injection, schedule: Q04DX003 (ip), vehicle: saline): 2 of 6
- survivor count (dose: 24.0 mg/kg/injection, schedule: Q01DX009 (ip), vehicle: saline): 0 of 6

SMILES: C=C(C)CNc1ccccc1
- survivor count [1]: 6 of 6
- survivor count [3]: 0 of 6

SMILES: Cc1cc(OCc2nc(N)nc(N)c2-c2ccc(Cl)c(Cl)c2)ccc1NS(=O)(=O)c1cccc(S(=O)(=O)F)c1
- T/C (dose: 200.0 mg/kg/injection, schedule: Q04DX003 (ip), vehicle: Klucel (hydroxypropylcellulose) (HPC)): 140 % of control
- T/C (dose: 264.0 mg/kg/injection, schedule: Q04DX003 (ip), vehicle: saline): 145 % of control
- T/C [4]: 145 % of control
- T/C (dose: 400.0 mg/kg/injection, schedule: Q04DX003 (ip), vehicle: saline): 136 % of control

SMILES: CC(C)Cn1cnc2c(Sc3c([N+](=O)[O-])ncn3C)nc(N)nc21
- T/C [5]: 127 and 130 % of control [4 of 6 alive]
- survivor count [5]: 6 of 6
- T/C (dose: 150.0 mg/kg/injection, schedule: Q01DX009 (ip), vehicle: Klucel (hydroxypropylcellulose) (HPC)): 130 % of control [5 of 6 alive]
- T/C (dose: 264.0 mg/kg/injection, schedule: Q04DX003 (ip), vehicle: Klucel (hydroxypropylcellulose) (HPC)): 131 % of control (2×)
- survivor count (dose: 400.0 mg/kg/injection, schedule: Q01DX009 (ip), vehicle: Klucel (hydroxypropylcellulose) (HPC)): 6 of 6
- T/C [4]: 131 % of control

SMILES: CCN(Cc1ccccc1)c1ccc(/C=C/c2nccc3ccccc23)cc1
- T/C (dose: 400.0 mg/kg/injection, schedule: Q04DX002 (ip), vehicle: saline with Tween-80): 132 % of control

SMILES: O=C1c2ccccc2-c2ncccc21
- survivor count [4]: 4 of 6

SMILES: CN=C(NC)c1ccc(NC(=O)/C=C\c2ccc(C(=O)Nc3ccc(C(=NC)NC)cc3)cc2)cc1
- T/C (dose: 0.22 mg/kg/injection, schedule: Q01DX009 (ip), vehicle: saline with Tween-80): 126 % of control
- T/C (dose: 0.33 mg/kg/injection, schedule: Q01DX009 (ip), vehicle: saline with Tween-80): 145 % of control
- T/C (dose: 0.44 mg/kg/injection, schedule: Q01DX009 (ip), vehicle: saline with Tween-80): 134 % of control
- T/C (dose: 0.66 mg/kg/injection, schedule: Q01DX009 (ip), vehicle: saline with Tween-80): 149 % of control
- T/C (dose: 1.0 mg/kg/injection, schedule: Q01DX009 (ip), vehicle: saline with Tween-80): 149 % of control
- T/C (dose: 3.0 mg/kg/injection, schedule: Q04DX003 (ip), vehicle: saline with Tween-80): 125 % of control

SMILES: O=C(CNC(=O)Nc1ccc(C2=NCCN2)cc1)Nc1ccc(C2=NCCN2)cc1
- T/C (dose: 50.0 mg/kg/injection, schedule: Q01DX009 (ip), vehicle: saline with Tween-80): 125 % of control

SMILES: CN(C)CCOc1cccc(OCCN(C)C)n1
- survivor count [2]: 1 of 6
- survivor count [6]: 5 of 6

SMILES: COc1cc(O)c2c(c1)Cc1cc(C)cc(O)c1C2=O
- survivor count (dose: 25.0 mg/kg/injection, schedule: Q01DX009 (ip), vehicle: saline with Tween-80): 6 of 6

SMILES: CCC1=C(C[C@H]2NCCc3cc(OC)c(OC)cc32)C[C@H]2c3cc(OC)c(OC)cc3CCN2C1
- T/C (dose: 8.0 mg/kg/injection, schedule: Q04DX003 (ip), vehicle: saline): 130 % of control
- T/C (dose: 10.0 mg/kg/injection, schedule: Q04DX003 (ip), vehicle: saline with Tween-80): 131 % of control
- T/C (dose: 10.8 mg/kg/injection, schedule: Q04DX003 (ip), vehicle: saline): 126 % of control
- T/C (dose: 18.0 mg/kg/injection, schedule: Q04DX003 (ip), vehicle: saline): 141 % of control
- survivor count (dose: 22.0 mg/kg/injection, schedule: Q01DX009 (ip), vehicle: Klucel (hydroxypropylcellulose) (HPC)): 4 of 6
- T/C (dose: 22.0 mg/kg/injection, schedule: Q04DX003 (ip), vehicle: saline): 127 % of control
- T/C (dose: 30.0 mg/kg/injection, schedule: Q04DX003 (ip), vehicle: saline): 147 % of control [7 of 8 alive]
- survivor count (dose: 33.0 mg/kg/injection, schedule: Q01DX009 (ip), vehicle: Klucel (hydroxypropylcellulose) (HPC)): 0 of 6
- survivor count (dose: 50.0 mg/kg/injection, schedule: Q01DX009 (ip), vehicle: Klucel (hydroxypropylcellulose) (HPC)): 0 of 6
- survivor count (dose: 50.0 mg/kg/injection, schedule: Q04DX003 (ip), vehicle: Klucel (hydroxypropylcellulose) (HPC)): 6 of 6
- T/C [7]: 145 % of control [5 of 6 alive]
- survivor count [7]: 6 of 8
- survivor count (dose: 64.0 mg/kg/injection, schedule: Q04DX003 (ip), vehicle: saline): 5 of 8
- survivor count (dose: 75.0 mg/kg/injection, schedule: Q01DX009 (ip), vehicle: Klucel (hydroxypropylcellulose) (HPC)): 0 of 6
- survivor count (dose: 75.0 mg/kg/injection, schedule: Q04DX003 (ip), vehicle: Klucel (hydroxypropylcellulose) (HPC)): 1 of 6
- survivor count (dose: 75.0 mg/kg/injection, schedule: Q04DX003 (ip), vehicle: saline with Tween-80): 3 of 6

SMILES: CCCCN(CCCC)CC(O)c1cc(-c2ccc(Cl)c(Cl)c2)cc2cc(Cl)ccc12 (stereo unspecified)
- survivor count [2]: 6 of 6
- survivor count [1]: 6 of 6

SMILES: ClC(Cl)(Cl)c1nc2nccnc2[nH]1
- survivor count (dose: 100.0 mg/kg/injection, schedule: Q04DX003 (ip), vehicle: Klucel (hydroxypropylcellulose) (HPC)): 3 of 6
- T/C [6]: 145 % of control
- T/C (dose: 150.0 mg/kg/injection, schedule: Q04DX003 (ip), vehicle: saline with Tween-80): 127 % of control
- survivor count (dose: 200.0 mg/kg/injection, schedule: Q04DX003 (ip), vehicle: saline with Tween-80): 4 of 6
